Results reported in publication PMC9352529.
Results are given in words; binding and its absence hold for the method and conditions named. Binding seen in cells or lysates may run through a third protein. Some binding calls cover weakened binding; strength is not graded here. Blank lines part the entries; values can stand above or below the molecule they belong to.

Sequences of proteins named here, by UniProt entry; tags and fusion partners are left off. Residues count along the entry.
UniProt P62813, residues 28-455: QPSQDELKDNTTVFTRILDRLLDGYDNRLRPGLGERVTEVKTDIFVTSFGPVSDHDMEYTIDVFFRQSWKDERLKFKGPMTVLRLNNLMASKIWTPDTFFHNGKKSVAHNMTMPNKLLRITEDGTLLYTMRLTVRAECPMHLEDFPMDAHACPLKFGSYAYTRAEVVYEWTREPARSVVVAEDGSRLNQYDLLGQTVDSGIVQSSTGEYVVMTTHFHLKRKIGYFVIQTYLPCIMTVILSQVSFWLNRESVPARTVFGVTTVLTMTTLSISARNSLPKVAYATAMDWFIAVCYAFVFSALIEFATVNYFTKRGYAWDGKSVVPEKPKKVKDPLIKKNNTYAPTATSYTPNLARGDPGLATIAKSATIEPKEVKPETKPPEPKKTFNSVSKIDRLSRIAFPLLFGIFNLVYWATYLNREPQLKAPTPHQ
UniProt P49582, residues 23-502: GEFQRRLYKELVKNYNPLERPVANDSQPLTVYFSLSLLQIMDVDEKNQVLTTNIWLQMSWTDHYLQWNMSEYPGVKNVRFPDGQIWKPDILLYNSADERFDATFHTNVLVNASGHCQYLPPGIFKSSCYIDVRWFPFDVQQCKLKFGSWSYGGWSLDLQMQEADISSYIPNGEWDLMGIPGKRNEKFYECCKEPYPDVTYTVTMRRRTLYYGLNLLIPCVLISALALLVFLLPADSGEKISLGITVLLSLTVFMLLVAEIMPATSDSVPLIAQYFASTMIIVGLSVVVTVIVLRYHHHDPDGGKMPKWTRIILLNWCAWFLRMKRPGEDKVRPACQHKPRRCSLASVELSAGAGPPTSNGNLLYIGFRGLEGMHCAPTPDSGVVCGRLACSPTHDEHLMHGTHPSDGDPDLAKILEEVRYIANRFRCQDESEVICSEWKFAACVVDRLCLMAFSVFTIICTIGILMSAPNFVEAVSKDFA
UniProt Q00960, residues 27-1482: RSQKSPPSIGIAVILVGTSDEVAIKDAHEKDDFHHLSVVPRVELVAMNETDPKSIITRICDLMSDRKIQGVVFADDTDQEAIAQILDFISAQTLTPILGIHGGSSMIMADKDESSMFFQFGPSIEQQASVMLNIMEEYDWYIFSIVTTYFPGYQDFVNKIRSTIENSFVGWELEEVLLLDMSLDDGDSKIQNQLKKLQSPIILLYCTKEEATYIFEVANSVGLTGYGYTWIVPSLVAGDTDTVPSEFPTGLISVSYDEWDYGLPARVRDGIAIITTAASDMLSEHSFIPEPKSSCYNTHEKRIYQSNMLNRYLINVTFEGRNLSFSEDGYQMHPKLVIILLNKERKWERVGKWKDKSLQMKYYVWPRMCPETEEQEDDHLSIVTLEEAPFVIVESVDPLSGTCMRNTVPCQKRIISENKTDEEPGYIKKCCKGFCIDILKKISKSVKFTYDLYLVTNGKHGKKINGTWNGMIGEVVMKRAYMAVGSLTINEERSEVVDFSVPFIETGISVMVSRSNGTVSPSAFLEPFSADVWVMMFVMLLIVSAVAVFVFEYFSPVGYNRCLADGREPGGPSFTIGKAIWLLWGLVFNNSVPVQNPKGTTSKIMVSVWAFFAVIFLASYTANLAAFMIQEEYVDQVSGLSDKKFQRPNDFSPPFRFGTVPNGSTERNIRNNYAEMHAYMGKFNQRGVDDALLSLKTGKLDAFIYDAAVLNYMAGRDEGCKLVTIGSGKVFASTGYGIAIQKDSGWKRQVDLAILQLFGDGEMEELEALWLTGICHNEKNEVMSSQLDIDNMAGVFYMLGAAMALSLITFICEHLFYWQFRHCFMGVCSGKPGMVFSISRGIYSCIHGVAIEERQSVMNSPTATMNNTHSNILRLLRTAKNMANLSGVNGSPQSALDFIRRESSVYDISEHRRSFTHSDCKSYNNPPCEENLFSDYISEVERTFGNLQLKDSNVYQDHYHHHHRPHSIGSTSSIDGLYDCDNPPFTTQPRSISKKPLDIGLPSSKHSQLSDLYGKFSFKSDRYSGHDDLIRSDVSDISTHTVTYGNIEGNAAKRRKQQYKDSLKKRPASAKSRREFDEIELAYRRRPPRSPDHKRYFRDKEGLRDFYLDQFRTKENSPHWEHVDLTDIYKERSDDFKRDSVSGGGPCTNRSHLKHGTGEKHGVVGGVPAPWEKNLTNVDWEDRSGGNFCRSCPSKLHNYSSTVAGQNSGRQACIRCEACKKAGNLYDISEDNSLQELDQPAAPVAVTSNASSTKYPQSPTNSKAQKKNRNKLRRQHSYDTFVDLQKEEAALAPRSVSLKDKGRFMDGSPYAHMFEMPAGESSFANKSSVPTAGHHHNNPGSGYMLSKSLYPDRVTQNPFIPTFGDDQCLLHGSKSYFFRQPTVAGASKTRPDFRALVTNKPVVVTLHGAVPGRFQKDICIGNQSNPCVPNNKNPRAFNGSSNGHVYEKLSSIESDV
UniProt Q66HD0, residues 22-804: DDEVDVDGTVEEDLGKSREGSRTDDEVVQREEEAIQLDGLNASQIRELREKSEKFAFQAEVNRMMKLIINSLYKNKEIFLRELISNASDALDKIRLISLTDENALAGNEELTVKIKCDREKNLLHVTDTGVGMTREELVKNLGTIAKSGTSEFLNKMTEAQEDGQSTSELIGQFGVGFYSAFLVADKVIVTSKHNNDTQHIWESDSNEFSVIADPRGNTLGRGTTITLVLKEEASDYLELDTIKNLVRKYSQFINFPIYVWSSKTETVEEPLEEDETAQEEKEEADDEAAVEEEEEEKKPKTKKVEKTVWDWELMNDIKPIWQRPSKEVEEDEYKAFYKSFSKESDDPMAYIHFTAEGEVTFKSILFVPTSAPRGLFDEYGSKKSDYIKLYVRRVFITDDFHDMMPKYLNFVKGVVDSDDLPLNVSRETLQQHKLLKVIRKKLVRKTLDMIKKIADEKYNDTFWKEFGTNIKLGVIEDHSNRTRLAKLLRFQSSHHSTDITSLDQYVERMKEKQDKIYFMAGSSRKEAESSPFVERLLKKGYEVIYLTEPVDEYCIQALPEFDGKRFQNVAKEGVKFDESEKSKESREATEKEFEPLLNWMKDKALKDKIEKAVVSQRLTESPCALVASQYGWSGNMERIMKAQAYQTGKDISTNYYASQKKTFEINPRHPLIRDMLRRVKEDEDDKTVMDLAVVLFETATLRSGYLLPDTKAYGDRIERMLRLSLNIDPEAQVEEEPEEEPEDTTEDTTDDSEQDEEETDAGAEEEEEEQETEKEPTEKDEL
UniProt P46462: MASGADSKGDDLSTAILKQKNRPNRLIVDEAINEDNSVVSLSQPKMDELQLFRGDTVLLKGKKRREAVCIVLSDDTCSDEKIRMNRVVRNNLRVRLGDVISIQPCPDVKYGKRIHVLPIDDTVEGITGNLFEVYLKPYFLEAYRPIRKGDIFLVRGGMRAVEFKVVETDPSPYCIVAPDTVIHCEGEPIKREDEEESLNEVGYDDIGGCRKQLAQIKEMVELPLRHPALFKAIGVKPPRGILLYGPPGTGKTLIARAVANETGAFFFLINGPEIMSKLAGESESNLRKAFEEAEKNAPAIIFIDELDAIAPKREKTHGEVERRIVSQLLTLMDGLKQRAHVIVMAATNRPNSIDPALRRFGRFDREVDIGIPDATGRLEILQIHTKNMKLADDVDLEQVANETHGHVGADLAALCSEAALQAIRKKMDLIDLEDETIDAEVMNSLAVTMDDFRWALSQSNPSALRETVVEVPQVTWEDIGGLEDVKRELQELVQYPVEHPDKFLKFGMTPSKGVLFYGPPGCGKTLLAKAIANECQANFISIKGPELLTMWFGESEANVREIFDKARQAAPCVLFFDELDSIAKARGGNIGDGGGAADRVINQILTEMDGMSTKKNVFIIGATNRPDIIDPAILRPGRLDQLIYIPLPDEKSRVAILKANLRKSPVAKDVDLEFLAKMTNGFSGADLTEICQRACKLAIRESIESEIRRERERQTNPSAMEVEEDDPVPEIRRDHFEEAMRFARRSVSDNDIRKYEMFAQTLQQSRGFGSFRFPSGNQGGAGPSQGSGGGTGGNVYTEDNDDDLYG
UniProt Q05941, residues 23-502: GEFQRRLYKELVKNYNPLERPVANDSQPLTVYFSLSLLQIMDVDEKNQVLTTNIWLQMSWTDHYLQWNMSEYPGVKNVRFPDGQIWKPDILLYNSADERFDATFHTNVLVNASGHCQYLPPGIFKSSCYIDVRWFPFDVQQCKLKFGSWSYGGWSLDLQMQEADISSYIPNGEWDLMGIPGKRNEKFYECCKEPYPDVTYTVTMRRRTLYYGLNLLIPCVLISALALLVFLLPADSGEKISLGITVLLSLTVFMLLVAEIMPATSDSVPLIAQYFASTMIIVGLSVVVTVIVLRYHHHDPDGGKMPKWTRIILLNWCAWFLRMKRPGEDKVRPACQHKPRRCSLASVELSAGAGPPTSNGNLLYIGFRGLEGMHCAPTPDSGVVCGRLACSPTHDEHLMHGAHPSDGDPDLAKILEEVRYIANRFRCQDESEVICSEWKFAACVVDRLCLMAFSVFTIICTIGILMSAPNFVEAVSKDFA

Experiments:
[1] = biological target: T1, EMC3 (endogenous, mouse cortical homogenate) (mouse (endogenous in cortex of C57BL/6J mice)) (UniProt Q99KI3); assay: co-IP; mouse cortical homogenates from C57BL/6J mice of 8-10 weeks (25 mM Tris-HCl pH 7.5, 150 mM NaCl, 1% NP-40, 0.5% sodium deoxycholate, 0.1% SDS); endogenous proteins; western blot
T1 sequence: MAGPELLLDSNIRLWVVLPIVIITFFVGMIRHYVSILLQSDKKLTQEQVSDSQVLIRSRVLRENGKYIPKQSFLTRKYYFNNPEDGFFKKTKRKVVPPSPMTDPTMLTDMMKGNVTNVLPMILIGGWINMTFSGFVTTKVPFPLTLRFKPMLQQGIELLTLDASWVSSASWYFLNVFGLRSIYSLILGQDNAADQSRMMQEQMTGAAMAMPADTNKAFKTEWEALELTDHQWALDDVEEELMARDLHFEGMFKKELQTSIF

[2] = biological target: T2, EMC6 (endogenous, mouse cortical homogenate) (mouse (endogenous in cortex of C57BL/6J mice)) (UniProt Q9CQW0); assay: as above
T2 sequence: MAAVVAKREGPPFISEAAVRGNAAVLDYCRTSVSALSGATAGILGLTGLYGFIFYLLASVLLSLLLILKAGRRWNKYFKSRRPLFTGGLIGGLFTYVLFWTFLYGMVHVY

[3] = biological target: T3, EMC3 (endogenous, rat cortical neurons) (rat (endogenous in primary cortical neurons)) (UniProt Q5U2V8); assay: co-IP; primary rat cortical neurons, lysate; endogenous EMC3 or EMC6 pulled down; western blot for NMDAR and nAChR subunits
T3 sequence: T1 sequence

[4] = biological target: GABAA receptor α1 subunit (endogenous, rat cortical neurons) (rat (endogenous in primary cortical neurons)) (UniProt P62813); assay: co-IP; primary rat cortical neurons at DIV 12, lysate; immunoprecipitation of endogenous α1 with mouse anti-α1 antibody and protein A/G plus-agarose beads, 4°C; western blot; IgG as negative control

binding [1]: binds
binding [2]: binds
Molecule: nicotinic acetylcholine receptor α7 subunit (endogenous, mouse cortical homogenate) (from UniProt P49582 23-502)

binding [3]: binds
Molecule: NMDA receptor NR2B subunit (endogenous, rat cortical neurons) (from UniProt Q00960 27-1482)

binding [3]: binds
Molecule: NMDA receptor NR1 subunit (endogenous, rat cortical neurons) (from UniProt P35439 19-938)

binding [4]: binds
Molecule: Grp94 (endogenous, rat cortical neurons) (from UniProt Q66HD0 22-804)

binding [4]: binds
Molecule: VCP (endogenous, rat cortical neurons) (from UniProt P46462 1-806)

The remaining lines, values behind:

Molecule: NMDA receptor NR2A subunit (endogenous, rat cortical neurons) (from UniProt Q00959 23-1464)
binding [3]: binds

Molecule: nicotinic acetylcholine receptor α7 subunit (endogenous, rat cortical neurons) (from UniProt Q05941 23-502)
binding [3]: binds

B1: calnexin (endogenous, rat cortical neurons) (protein, UniProt P35565 21-591)
chain: HDGHDDDMIDIEDDLDDVIEEVEDSKSKSDTSTPPSPKVTYKAPVPTGEVYFADSFDRGSLSGWILSKAKKDDTDDEIAKYDGKWEVDEMKETKLPGDKGLVLMSRAKHHAISAKLNKPFLFDTKPLIVQYEVNFQNGIECGGAYVKLLSKTSELNLDQFHDKTPYTIMFGPDKCGEDYKLHFIFRHKNPKTGVYEEKHAKRPDADLKTYFTDKKTHLYTLILNPDNSFEILVDQSVVNSGNLLNDMTPPVNPSREIEDPEDRKPEDWDERPKIADPDAVKPDDWDEDAPSKIPDEEATKPEGWLDDEPEYIPDPDAEKPEDWDEDMDGEWEAPQIANPKCESAPGCGVWQRPMIDNPNYKGKWKPPMIDNPNYQGIWKPRKIPNPDFFEDLEPFRMTPFSAIGLELWSMTSDIFFDNFIISGDRRVVDDWANDGWGLKKAADGAAEPGVVGQMLEAAEERPWLWVVYILTVALPVFLVILFCCSGKKQSNAMEYKKTDAPQPDVKDEEGKEEEKNKGDEEEEEEKLEEKQKSDAEEDGGTGSQDEEDSKPKAEEDEILNRSPRNRKPRRE
binding [4]: binds

B2: EMC3 (endogenous, rat cortical neurons) (protein, UniProt Q5U2V8 1-261)
chain: T1 sequence
binding [4]: binds
